Reference: PubChem BioAssay AID485349 (National Center for Advancing Translational Sciences (NCATS), 2010)
Out of some 320,000 compounds screened, about 620 (0.19%) were called active. Inconclusive means that the source gave no clear call. Such entries were picked first, then a sample of the others. The call rests on the fitted dose curve; in most records, active means well fitted activation curve with a large enough effect; inconclusive means small, poorly fitted or top-dose-only effect; inactive means no such curve, though single readings can be large or run the other way. Potencies beside an inconclusive call are fits to weak or partial responses and may not hold up.
Potency means the concentration at half of the fitted maximal effect.

Experiment: qHTS Assay for Identifying a Potential Treatment of Ataxia-Telangiectasia; further: nearly all actives have a fitted effect of over 45% in size
Details: […] A-T fibroblasts, KAP-1 phosphorylation AlphaLISA, neocarzinostatin DNA damage 30 min before lysis; series mostly up to 57.5 µM
Description: NIH Chemical Genomics Center [NCGC] NIH Molecular Libraries Probe Centers Network [MLPCN] MLPCN Grant: MH089030-01 Assay Submitter (PI): Wei Zheng and Yosef Shiloh Ataxia-telangiectasia (A-T) is a devastating and progressive disease for which, there is no cure. Although A-T is a multisystem disease, it is stereotyped characterized by its neurological symptoms such as truncal ataxia, due to cerebellar cortical degeneration of the Purkinje and granule cells. Other symptoms of A-T are telangiectasias (dilated blood vessels), primary immunodeficiency, marked sensitivity to ionizing radiation (IR), chromosomal instability and predisposition to cancer. The underlying genetic cause of A-T is null mutations in the ATM (A-T mutated) gene. ATM is a nuclear serine/threonine kinase that functions as a master regulator of the cellular responses to double strand breaks (DSBs) in the DNA. Upon activation by DSBs, ATM phosphorylates a plethora of down stream targets, including KAP-1 on […]. KAP-1 phosphorylation occurs shortly in response to DSBs and mediates global chromatin relaxation, which facilitates DSB repair. To screen for small molecules that will compensate for the loss of ATM in cells derived from A-T patients, we monitored KAP-1 phosphorylation as a readout for ATM-like activity using an AlphaLISA assay.
qHTS Assay Protocol: Step,Parameter,Value,Description 1. Cell Plating, 3 ul, 500 cells/well in OPTI-MEM, 1% FBS, 1% Pen/Strep 2. Incubation, 16-24 hr, 37C, 5% CO2, 95% humidity 3. Library compounds, 23 nl, 76.7 - 0.61uM dilution series final concentration 4. Incubation, 60 min, 37C, 5% CO2, 95% humidity 5. Reagent, 1 ul, 1600 ng/ml NCS in PBS + 0.05% BSA + 0.005% Tween 20 6. Incubation, 30 min, 37C, 5% CO2, 95% humidity 7. Reagent, 1 ul, Premixed detection reagents and lysis buffer 8. Reagent, 1 ul, 0.6% Antifoam A 9. Incubation, 6 hr, 25C, 95% humidity 10. Readout, EnVision, EnVision plate reader. AlphaScreen 1536-well protocol Cells were plated using medium-binding white solid-bottom tissue culture treated Kalypsys plates. Multidrop dispense of 3 uL of […] (hTERT immortalized A-T patient fibroblast cells). Detection reagent and lysis buffer was 3.75nM Rab-a-pKAP1 antibody bound to 75 ng/ul AlphaScreen SA donor bead, 3.75 nM Biot-M-a-KAP1 antibody bound to AlphaLISA protein A acceptor bead, 0.5x protease inhibitor cocktail and 0.25x PerkinElmer lysis buffer. EnVision protocol for 1536-well AlphaScreen read (30ms excitation, 100ms read), about 10 min/plate.
For `O=C(O)c1ccc(NC2=C/C(=N/S(=O)(=O)c3ccccc3)c3ccccc3C2=O)cc1`, the Potency was “inactive”.
With `COCC1CCCN(C(=O)c2cc(COc3ccc4ncccc4c3)on2)C1` (centres undefined) the Potency was inconclusive: 39.8 µM [activator, single point].
With `CCC(=O)Nc1cccc(C2=NOC3(C2)C[C@@H](C(N)=O)N(C(=O)C2(C)CC2)C3)c1` (some centres undefined) the Potency was inconclusive: 39.8 µM [activator, single point].
For `CCCCCn1c(=N)n(CC(O)COc2ccccc2OC)c2ccccc21` (centres undefined), the Potency was inconclusive: 10 µM [activator, full curve, poor fit].
In the case of `CCOP(=O)(OCC)C(Nc1cccc([N+](=O)[O-])c1)c1ccc(OC)cc1` (centres undefined), the Potency is reported as “inactive”.
With `CCN1C(=O)c2cccc3c(S(=O)(=O)N(C(=O)c4cccnc4)c4ccc(OC)cc4)ccc1c23` the Potency was inconclusive: 39.8 µM [activator, single point].
In the case of `Clc1ccc(C(c2ccccc2Cl)C(Cl)Cl)cc1` (centres undefined), the Potency is reported as active: 28.2 µM.
For `O=C(N/N=C\C=C\c1ccc2c(c1)OCO2)C1COc2ccccc2O1` (centres undefined), the Potency was “inactive”.
With `Cc1ccc(S(=O)(=O)N2CCN(C(=O)CN3CCCC3)C2)cc1` the Potency was “inactive”.
For `CC(C)OC1(c2ccccc2)OC(=O)c2ccccc21` (centres undefined), the Potency was inconclusive: 14.1 µM [activator, partial curve, poor fit].
For `O=C(N/N=C/c1ccncc1)c1cc(C2CC2)nc2ccccc12`, the Potency was “inactive”.
In the case of `COc1ccc(C2CC(c3cccs3)=NN2c2ccccc2)cc1` (centres undefined), the Potency is reported as active: 28.2 µM.
For `O=C(Nc1ccccc1C(F)(F)F)N1CCN(c2ccc3nnc(-c4ccc(F)cc4)n3n2)CC1`, the Potency was inconclusive: 3.16 µM [activator, partial curve].
With `CCOc1ccc(NC(=O)CN2C(=O)COc3ccc(S(=O)(=O)N4CCCC4)cc32)cc1` the Potency was inconclusive: 3.16 µM [activator, partial curve].
In the case of `Cc1cc(C)cc(NC(=O)CN(C)S(=O)(=O)c2cnc[nH]2)c1`, the Potency is reported as “inactive”.
With `CC(=O)c1nn(-c2ccc(C(F)(F)F)cc2)c(=O)[nH]c1=O` the Potency was inconclusive: 39.8 µM [activator, single point].
For `N#Cc1c2c(c(-n3cnc4ccccc43)n3c1nc1ccccc13)CCC2`, the Potency was inconclusive: 3.16 µM [activator, partial curve].
With `CC1(C)CC(=O)C2=C(C1)N(CCN1CCOCC1)C1=C(C(=O)CC(C)(C)C1)C2c1ccc(Cl)cc1` the Potency was inconclusive: 17.8 µM [activator, partial curve].
With `COCCn1c(N)c(C(=O)NCC2CCCO2)c2nc3ccccc3nc21` (centres undefined) the Potency was inconclusive: 28.2 µM [activator, partial curve].
